# Screening data, single-dose tests

From ChEMBL document CHEMBL3988442, “University of Dundee, Small-Polar-MMV Screening Library” (2021).

Results are given as percent effect. The controls that fix the scale are not given in the record; negative values are as filed. The compounds are a random part of those screened. Two or more numbers in one place are separate tests of the same structure; such repeats can differ widely.

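Phenotypic screen: M. tuberculosis growth, glucose 7H9 medium, 3 days; the read-out is not stated. Compounds at 50 µM. Higher reads as more growth inhibition (inferred: compounds with an IC50 in retests scored well above the rest). Size under these conditions: about 69,000 compounds, about 760 of them at 50% or above in at least one test.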

{"smiles": "CC(C)c1nc(CN(C)C2CCN(CCc3ccncc3)C2)no1", "stereo": "configuration not stated", "Percent Effect": -9.564}
{"smiles": "CCN1CCN(C(=O)c2ccnc(N(C)C)c2)CC1", "Percent Effect": "-10.58 and -11.85"}
{"smiles": "CC1c2ncc(Cn3cncn3)n2CCN1C(=O)Cc1cccs1", "stereo": "configuration not stated", "Percent Effect": "21.73 and -1.828"}
{"smiles": "COCc1nc(N(C)C)ncc1C(=O)OC", "Percent Effect": 32.43}
{"smiles": "O=C1NCCN1C1CCN(Cc2nc(-c3ccoc3)no2)CC1", "Percent Effect": 7.217}
{"smiles": "CCN(Cc1nc(COC)no1)Cc1cccnc1NC", "Percent Effect": -11.59}
{"smiles": "COCC(=O)N1CCC(c2cc(-c3ccc(N)nc3)cc(C)n2)CC1", "Percent Effect": 9.008}
{"smiles": "CCc1cn[nH]c1C1CCCN(C(=O)c2cc(C(C)C)on2)C1", "stereo": "configuration not stated", "Percent Effect": 16.9}
{"smiles": "COCC(NC(=O)c1ccc(O)nc1)c1ccc(C)o1", "stereo": "configuration not stated", "Percent Effect": "-12.29 and 1.792"}
{"smiles": "Cc1nc(CNC2CCc3ncnn3C2)oc1C", "stereo": "configuration not stated", "Percent Effect": 23.64}
{"smiles": "CC(C)(C)C(CCO)NC(=O)Nc1ccccc1", "stereo": "configuration not stated", "Percent Effect": "3.061 and -8.74"}
{"smiles": "CCOCC1CN(Cc2cnn(C)c2)Cc2cnn(C)c21", "stereo": "configuration not stated", "Percent Effect": -5.568}
{"smiles": "[H][C@@]12OCCN(C(=O)c3ccc(C)o3)[C@@]1([H])CC[C@H]2OC", "Percent Effect": -47.43}
{"smiles": "Cc1cc2c(=O)n3c(nc2s1)CCN(C(=O)c1ccncc1)CC3", "Percent Effect": -15.5}
{"smiles": "O=C(O)C(F)(F)F.O=C(O)C(F)(F)F.[H][C@@]12CCCO[C@]1([H])[C@H](N(C)Cc1ccco1)CN(Cc1cccs1)C2", "Percent Effect": -15.92}
{"smiles": "Cc1cccnc1NC(=O)C1CCCN1Cc1ccccc1", "stereo": "configuration not stated", "Percent Effect": -22.87}
{"smiles": "COCCNc1nnc(-c2ccccn2)s1", "Percent Effect": 12.63}
{"smiles": "O=C1NCC(C(=O)Nc2ccc(=O)n(Cc3ccccc3Cl)c2)N1", "stereo": "configuration not stated", "Percent Effect": 28.94}
{"smiles": "CN(C)C(=O)C1OC2(CCN(C(=O)N(C)C)CC2)c2ccccc21", "stereo": "configuration not stated", "Percent Effect": 23.86}
{"smiles": "Cc1oncc1C(=O)NCc1cc(=O)n2c(n1)CN(C(C)C)CCC2.O=C(O)C(F)(F)F", "Percent Effect": -9.23}
{"smiles": "COc1cc(C(C)=O)ccc1SCC(=O)Nc1cc(C)n[nH]1", "Percent Effect": 7.011}
{"smiles": "Cn1cc(C2CN(C(=O)Cc3coc(-c4ccccc4)n3)CCO2)cn1", "stereo": "configuration not stated", "Percent Effect": "2.265 and 8.27"}
{"smiles": "Cc1cn2c(CN(C)C(=O)c3cnc(N)c(Cl)c3)c(C)nc2s1", "Percent Effect": -7.925}
{"smiles": "[H][C@]12CN(Cc3ccccc3CC)CC[C@@]1(O)CCN(S(=O)(=O)N(C)C)C2", "Percent Effect": -20.45}
{"smiles": "CC(C)CN1CCCn2nc(CNC(=O)CCCc3cn[nH]c3)cc2C1", "Percent Effect": 31.82}
{"smiles": "Fc1ccc(Cn2ncc3c2CN(c2ncccn2)C3)cc1", "Percent Effect": 30.55}
{"smiles": "Cc1occc1C(=O)NCC(=O)N(C)CCCOc1ccc(F)cc1", "Percent Effect": "15.68 and -4.712"}
{"smiles": "O=C(CN1CCCC1c1noc(C2CC2)n1)NCCc1ccsc1", "stereo": "configuration not stated", "Percent Effect": "-50.29 and -2.449"}
{"smiles": "COc1cc(NCCCSc2nnc(C)s2)ncn1", "Percent Effect": 30.69}
{"smiles": "Cc1csc(Nc2nccnc2C2CCCN2C(=O)C(C)C)n1", "stereo": "configuration not stated", "Percent Effect": -18.45}
{"smiles": "Cc1nnc(CN(C)CCOc2cccc(Cl)c2)o1", "Percent Effect": 15.49}
{"smiles": "Cc1cc(C)n(-c2cc(N3CCN(C(=O)C(C)(C)C)CC3)nc(C)n2)n1", "Percent Effect": 28.88}
{"smiles": "C[C@@H]1CN(C(=O)Cn2ccc3ncccc3c2=O)C[C@H](C)O1", "Percent Effect": "2.165 and -15.41"}
{"smiles": "Cn1nc(C(=O)N2CCC(Oc3ccc(C#N)cn3)CC2)ccc1=O", "Percent Effect": -11.33}
{"smiles": "COc1ccc(S(=O)(=O)NCCCc2nnc3nc(C)cc(C)n23)cc1", "Percent Effect": 15.26}
{"smiles": "[H][C@]12CCC[C@@]1(COCC1CCOCC1)CN(C(=O)c1ocnc1C)C2", "Percent Effect": 3.702}
{"smiles": "OCC1CCCCN1CCn1ccnc1-c1ccc2c(c1)OCCO2", "stereo": "configuration not stated", "Percent Effect": 14.34}
{"smiles": "CCC1c2ccsc2CCN1C(=O)NCc1ccccn1", "stereo": "configuration not stated", "Percent Effect": 19.5}
{"smiles": "Cc1nc2n(n1)CC(NCc1cc(Cl)c3c(c1)OCCO3)CC2", "stereo": "configuration not stated", "Percent Effect": -15.96}
{"smiles": "OC1CN(c2nc3c(C(F)(F)F)cccc3s2)C1", "Percent Effect": -48.28}
{"smiles": "CC(=O)N1N=C(c2ccccc2)OC1C(=O)NCC(=O)OC(C)(C)C", "stereo": "configuration not stated", "Percent Effect": 5.491}
{"smiles": "CC1CCN(C(=O)C2CCN(c3ccc(Cl)cc3C#N)CC2)CC1", "Percent Effect": "13.59 and 26.85"}
{"smiles": "CCn1cc(CN2CCCN(C(=O)c3c(C)oc(C)c3C)CC2)cn1", "Percent Effect": 5.026}
{"smiles": "Cc1nc(CN(C)c2nc3c(cnn3C(C)(C)C)c(=O)[nH]2)cs1", "Percent Effect": -27.09}
{"smiles": "CC(=O)N(Cc1ncc(C(C)C)o1)C1CCN(Cc2cc(C)no2)C1", "stereo": "configuration not stated", "Percent Effect": 1.09}
{"smiles": "O=C(NC1CC(=O)N(C2CC2)C1)c1ccc(Cl)s1", "stereo": "configuration not stated", "Percent Effect": 20.62}
{"smiles": "COCC(O)CNC(=O)c1coc(COc2ccc3sc(C)nc3c2)n1", "stereo": "configuration not stated", "Percent Effect": "4.599 and -5.757"}
{"smiles": "Cc1cn[nH]c1C1CCCCN1C(=O)CCc1ccc(F)cc1", "stereo": "configuration not stated", "Percent Effect": -10.93}
{"smiles": "Cc1nc(CNC2(C(=O)OC(C)(C)C)CCCC2)oc1C", "Percent Effect": -17.35}
{"smiles": "Cc1oc(NC(=O)C(C)N2CCN(C(C)(C)CO)CC2)c(C#N)c1C", "stereo": "configuration not stated", "Percent Effect": 21.85}
{"smiles": "CCC(=O)N1CCC(O)(c2ncc(OC)nc2OC)CC1", "Percent Effect": 8.634}
{"smiles": "Cc1cnn(CCNCc2nccn2CC(F)(F)F)c1", "Percent Effect": 11.92}
{"smiles": "Cn1cc(C2CCCN2C(=O)Cn2ccc3ccccc32)cn1", "stereo": "configuration not stated", "Percent Effect": "-0.1568 and 31.8"}
{"smiles": "CCc1nnc(SC2CCCN(c3cccc(F)c3)C2=O)n1C", "stereo": "configuration not stated", "Percent Effect": -25.28}
{"smiles": "O=C(N[C@@H]1CN(Cc2ccc3cc[nH]c3c2)C[C@H]1O)c1cnccn1", "Percent Effect": 13.95}

Some entries from above, unchanged:

- CN(C)C(=O)C1OC2(CCN(C(=O)N(C)C)CC2)c2ccccc21 (configuration not stated) : 23.86%
- Cc1nc2n(n1)CC(NCc1cc(Cl)c3c(c1)OCCO3)CC2 (configuration not stated) : -15.96%
- CC1c2ncc(Cn3cncn3)n2CCN1C(=O)Cc1cccs1 (configuration not stated) : 21.73% and -1.828%